Values quoted from earlier work, collected in patent US20240300881A1, “PROCESS FOR PREPARATION OF LITHIUM L-THREONATE AND USE THEREOF” (XIXIOXOME BIOTHERAPEUTICS, priority 2023, published 2024).
At least one structure is not confirmed: it was looked up by name or label, or the drawing left a doubt.

How the values were obtained:
AD patients [1] = details: 300 μg lithium once daily, 15 months, compared to control group; cited from earlier work
AD patients [2] = details: AD patients treated with lithium, in comparison to placebo-treated patients; cited from earlier work
[3] = tested on: people with first-episode mania; details: continuation treatment after lithium plus quetiapine combination, versus quetiapine; cited from earlier work
schizoaffective patients = details: with clozapine; cited from earlier work
schizoaffective disorder = details: cited from earlier work

[Li] [lithium]
performance in mini-mental state examination test (AD patients [1]): no decreased performance | ADAS-Cog sum scores (AD patients [2]): significant decrease | BDNF serum levels (AD patients [2]): significant increase | mean levels of symptoms during a 1-year evolution [3]: superior | CGI and PANSS total and negative symptom scales and cognitive measures (schizoaffective patients): improved | prophylactic efficacy in maintenance treatment (schizoaffective disorder): equipotent alternatives
